# Reference: PubChem BioAssay (NCATS)
# Some of the results follow. Shown are side measurements of this screen, not its main read-out; they come without a call. Most of these compounds were active or inconclusive in the main read-out, so they are no random draw. For some of these results: The note in brackets gives the kind of curve behind each potency; many fits are weak.
# Assay: qHTS assay for small molecule antagonists of retinoid X receptor alpha signaling (AID 588546);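 also: cells stimulated with 9-cis-retinoic acid as agonist; % is scaled to controls: 0 for no effect and ±100 for the full control effect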
# Conditions: HEK293T RXRa-UAS-bla, beta-lactamase ratio, antagonist mode; measured here: W530 green channel, cytotoxicity proxy
# How it was run: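 Beta-lactamase reporter inhibition, read as CCF4 fluorescence ratio (ex 405, em 460/530 nm) after 2 h at RT. HEK293T UAS-bla cells, 2500/well, were stimulated with 9-cis-RA at 500 or 100 nM final alongside test compound for 18 h at 37 C.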
row,SMILES,max response [%]
1,Oc1ccc(Cl)c(Cl)c1Cl,-7.6
2,ClC(Cl)(Cl)Cl,-6.87
3,CC(C)Nc1ccc(Nc2ccccc2)cc1,-11.3
4,O=[N+]([O-])c1ccc2ccc3cccc4ccc1c2c34,34.3
5,CC(C)(C)C(=O)C1C(=O)c2ccccc2C1=O,-2.04
6,C[Si](Cn1cncn1)(c1ccc(F)cc1)c1ccc(F)cc1,-39.4
7,C[C@H]1CC[C@@H]2[C@@H](C)[C@H]3[C@H](C[C@H]4[C@@H]5CC=C6CC(O[C@@H]7O[C@H](CO)[C@H](O)[C@H](O[C@@H]8O[C@H](CO)[C@@H](O)[C@H](O)[C@H]8O)[C@H]7O[C@H]7O[C@@H](C)[C@H](O)[C@@H](O)[C@H]7O)CC[C@]6(C)[C@H]5CC[C@]34C)N2C1 (stereo partly drawn),-43.1
8,O=[N+]([O-])c1ccccc1,1.65
9,COc1cc(-c2ccc(N)c(OC)c2)ccc1N,-52.6
10,COP(=O)(OC)OC=C(Cl)Cl,-4.52
11,COC1=CC(=O)OC(CCc2ccc3c(c2)OCO3)C1 (stereo not drawn),26.6
12,O=P(O)(O)CCCl,-12.8
13,ClC1=C(Cl)[C@@]2(Cl)[C@H]3C[C@@H](Cl)[C@H](Cl)[C@H]3[C@@]1(Cl)C2(Cl)Cl,-24.4
14,Cc1ccccc1N,0.639
15,CNC(=O)CSP(=S)(OC)OC,-18.9
16,ClC(Cl)=C(c1ccc(Cl)cc1)c1ccc(Cl)cc1,-6.59
17,COc1nn(CSP(=S)(OC)OC)c(=O)s1,-2.63
18,O=C(O)C1(O)c2ccccc2-c2ccc(Cl)cc21 (stereo not drawn),-47.7
19,O=C(Nc1ccccc1)Nc1ccnc(Cl)c1,12.3
20,C=CCCl,-8.43
21,Oc1ccc(C2(c3ccc(O)cc3)c3ccccc3-c3ccccc32)cc1,-53.1
22,Clc1nc(Cl)nc(Nc2ccccc2Cl)n1,12.6
23,COP(=S)(OC)SCN1C(=O)c2ccccc2C1=O,-14
24,CN1CSC(=S)N(C)C1,14.1
25,O=C(O)C(Cl)(Cl)Cl,-16.6

# Structures from the list above containing a nitro group on carbon:
row,SMILES,max response [%]
4,O=[N+]([O-])c1ccc2ccc3cccc4ccc1c2c34,34.3
8,O=[N+]([O-])c1ccccc1,1.65

# Assay: S16 Schwann cell PMP22 intronic element beta-lactamase assay (AID 624044)
# Conditions: S16 rat Schwann cells, PMP22 element beta-lactamase FRET, 24 h; measured here: 460 nm blue channel
# How it was run: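 Rat S16 Schwann cells with beta-Lac driven by a PMP22 intronic element, compound-treated 24 h at 37 °C. LiveBLAzer FRET B/G read: 460 nm normalized to potassium clavulanate vs DMSO; 535 nm FRET as viability; concentration-effect curves classified.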
row,SMILES,AC50
1,CC(C)Nc1ccc(Nc2ccccc2)cc1,"0.00999 µM [falling, full curve, poor fit]"
2,C[C@H]1CC[C@@H]2[C@@H](C)[C@H]3[C@H](C[C@H]4[C@@H]5CC=C6CC(O[C@@H]7O[C@H](CO)[C@H](O)[C@H](O[C@@H]8O[C@H](CO)[C@@H](O)[C@H](O)[C@H]8O)[C@H]7O[C@H]7O[C@@H](C)[C@H](O)[C@@H](O)[C@H]7O)CC[C@]6(C)[C@H]5CC[C@]34C)N2C1 (stereo partly drawn),"7.94 µM [falling, full curve, poor fit]"
3,COP(=O)(OC)OC=C(Cl)Cl,"15.8 µM [falling, partial curve]"
